Results are given in words; binding and its absence hold for the method and conditions named. Some results given as binding are weak or reduced against the parent protein; the word gives no strength.
Key:
Assay in all cases: two-hybrid
AP1 (A. thaliana) = AP1 (A. thaliana) (UniProt P35631)
[1] = molecular target: SEP1 from A. thaliana (A. thaliana) (UniProt P29382)
SEP2 (A. thaliana) = SEP2 (A. thaliana) (UniProt P29384)
[2] = molecular target: SEP3 from A. thaliana (A. thaliana) (UniProt O22456)
[3] = molecular target: SEP4 from A. thaliana (A. thaliana) (UniProt P29383)

The chains behind the UniProt entries cited, without tags or fusion partners.
UniProt P35631: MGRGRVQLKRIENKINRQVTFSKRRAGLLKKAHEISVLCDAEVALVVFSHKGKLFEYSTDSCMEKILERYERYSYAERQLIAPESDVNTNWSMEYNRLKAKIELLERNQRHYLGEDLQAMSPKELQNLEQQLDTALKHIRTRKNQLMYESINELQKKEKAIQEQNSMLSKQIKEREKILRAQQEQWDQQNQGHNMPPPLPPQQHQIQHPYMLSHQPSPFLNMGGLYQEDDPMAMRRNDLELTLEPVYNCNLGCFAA
UniProt P29382: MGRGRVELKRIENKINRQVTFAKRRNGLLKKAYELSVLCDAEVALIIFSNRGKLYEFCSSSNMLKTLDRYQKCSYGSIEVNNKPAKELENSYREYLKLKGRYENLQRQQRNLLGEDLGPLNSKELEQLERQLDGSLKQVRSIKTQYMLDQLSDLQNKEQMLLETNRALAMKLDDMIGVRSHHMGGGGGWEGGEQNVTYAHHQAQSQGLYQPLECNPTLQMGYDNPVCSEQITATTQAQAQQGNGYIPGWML
UniProt P29384: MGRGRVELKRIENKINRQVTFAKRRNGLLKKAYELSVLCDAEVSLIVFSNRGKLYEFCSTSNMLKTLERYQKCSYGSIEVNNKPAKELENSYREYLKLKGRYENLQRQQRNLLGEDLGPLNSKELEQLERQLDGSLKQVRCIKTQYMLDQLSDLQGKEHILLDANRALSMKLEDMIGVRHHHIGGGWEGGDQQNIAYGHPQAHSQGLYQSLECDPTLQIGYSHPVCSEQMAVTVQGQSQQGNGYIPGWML
UniProt O22456: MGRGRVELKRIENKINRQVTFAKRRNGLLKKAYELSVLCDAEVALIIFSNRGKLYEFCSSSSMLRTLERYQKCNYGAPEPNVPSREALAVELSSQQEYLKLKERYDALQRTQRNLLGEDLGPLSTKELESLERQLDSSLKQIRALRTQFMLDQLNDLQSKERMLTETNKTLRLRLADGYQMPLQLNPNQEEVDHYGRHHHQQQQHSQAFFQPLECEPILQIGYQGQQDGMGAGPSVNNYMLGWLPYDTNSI
UniProt P29383: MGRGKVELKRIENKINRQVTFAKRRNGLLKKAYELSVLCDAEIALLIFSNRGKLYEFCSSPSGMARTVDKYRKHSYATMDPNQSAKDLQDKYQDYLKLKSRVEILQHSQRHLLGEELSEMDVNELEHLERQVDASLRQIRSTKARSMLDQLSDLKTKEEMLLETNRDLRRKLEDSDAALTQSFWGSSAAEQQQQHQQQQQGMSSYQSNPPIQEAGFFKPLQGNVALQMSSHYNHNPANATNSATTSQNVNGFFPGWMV
UniProt Q8RYD9: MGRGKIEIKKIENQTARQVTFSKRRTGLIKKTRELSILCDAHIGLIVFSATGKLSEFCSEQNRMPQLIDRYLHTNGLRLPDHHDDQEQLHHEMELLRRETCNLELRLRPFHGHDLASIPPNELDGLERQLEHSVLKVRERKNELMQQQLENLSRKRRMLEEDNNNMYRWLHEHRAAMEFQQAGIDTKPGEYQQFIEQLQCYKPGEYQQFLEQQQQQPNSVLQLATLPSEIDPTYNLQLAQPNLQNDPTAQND

“ARABIDOPSIS BSISTER (ABS) from A. thaliana (from UniProt Q8RYD9 1-252)” was tested, and the binding (AP1 (A. thaliana)) was “binds”, the binding [1] was “binds” and the binding (SEP2 (A. thaliana)) was “no binding”. The binding [2] was “binds” and the binding [3] was “binds”.
